± gives the standard deviation of the averaged measurements. The list shows a part of the results.
Compound: Nc1nc2c(ncn2[C@@H]2O[C@H](COP(=O)(O)OP(=O)(O)OP(=O)(O)O)[C@@H](O)[C@H]2O)c(=O)[nH]1 [guanosine triphosphate]
Assay: NP40-soluble protein abundance relative to vehicle (solubility fold change) (ratio); higher = more soluble protein in presence of GTP
Description: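 Solubility proteome profiling in Jurkat crude lysate. Lysate was treated with Mg-GTP (0.1-10 mM) for 10 min at room temperature and 3 min at 37 °C, then solubilised with 0.8% NP40 and benzonase, followed by ultracentrifugation. Proteins were quantified by TMT10 LC-MS/MS; the value is the NP40-soluble abundance relative to the NP40-processed vehicle, from 3 independent experiments.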

By UniProt entry, the sequences of proteins in these tests, tags left out. Where a name states a change or a piece, a line headed by the entry shows the natural chain unless it says otherwise.
UniProt Q15021, whole entry: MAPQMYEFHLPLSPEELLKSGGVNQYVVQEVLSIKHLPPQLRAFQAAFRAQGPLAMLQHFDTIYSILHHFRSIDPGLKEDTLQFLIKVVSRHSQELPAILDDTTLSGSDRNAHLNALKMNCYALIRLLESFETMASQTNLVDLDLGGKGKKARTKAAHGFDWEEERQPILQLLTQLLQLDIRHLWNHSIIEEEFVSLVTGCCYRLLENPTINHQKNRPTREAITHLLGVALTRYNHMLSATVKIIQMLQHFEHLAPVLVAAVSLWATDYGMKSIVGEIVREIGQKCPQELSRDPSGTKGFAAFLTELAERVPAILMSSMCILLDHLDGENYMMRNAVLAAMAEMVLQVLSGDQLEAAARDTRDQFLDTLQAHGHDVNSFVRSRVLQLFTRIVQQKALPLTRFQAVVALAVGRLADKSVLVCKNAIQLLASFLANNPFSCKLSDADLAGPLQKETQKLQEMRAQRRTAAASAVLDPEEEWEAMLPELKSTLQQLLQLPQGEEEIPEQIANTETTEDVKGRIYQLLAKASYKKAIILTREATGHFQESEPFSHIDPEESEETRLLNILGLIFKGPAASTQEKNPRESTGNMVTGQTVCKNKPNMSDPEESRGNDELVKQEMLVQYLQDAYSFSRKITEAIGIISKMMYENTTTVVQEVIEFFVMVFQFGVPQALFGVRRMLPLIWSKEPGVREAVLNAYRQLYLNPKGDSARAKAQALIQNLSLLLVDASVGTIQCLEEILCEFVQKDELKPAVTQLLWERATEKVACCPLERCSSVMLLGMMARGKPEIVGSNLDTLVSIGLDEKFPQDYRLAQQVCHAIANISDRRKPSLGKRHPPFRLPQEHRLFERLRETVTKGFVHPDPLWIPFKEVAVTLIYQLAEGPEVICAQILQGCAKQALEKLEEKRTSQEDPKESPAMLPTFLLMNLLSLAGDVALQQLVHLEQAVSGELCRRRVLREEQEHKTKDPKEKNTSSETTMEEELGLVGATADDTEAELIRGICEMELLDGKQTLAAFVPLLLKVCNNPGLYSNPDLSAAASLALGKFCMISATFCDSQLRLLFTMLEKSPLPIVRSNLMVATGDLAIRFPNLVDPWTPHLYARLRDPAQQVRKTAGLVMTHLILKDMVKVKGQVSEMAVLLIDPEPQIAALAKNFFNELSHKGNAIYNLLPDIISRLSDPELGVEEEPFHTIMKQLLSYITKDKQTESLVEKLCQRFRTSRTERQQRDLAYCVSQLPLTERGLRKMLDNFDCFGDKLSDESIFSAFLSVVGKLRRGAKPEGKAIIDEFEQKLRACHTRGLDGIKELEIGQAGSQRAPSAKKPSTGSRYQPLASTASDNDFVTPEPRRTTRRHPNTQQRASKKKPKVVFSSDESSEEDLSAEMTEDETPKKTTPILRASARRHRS
UniProt Q15185: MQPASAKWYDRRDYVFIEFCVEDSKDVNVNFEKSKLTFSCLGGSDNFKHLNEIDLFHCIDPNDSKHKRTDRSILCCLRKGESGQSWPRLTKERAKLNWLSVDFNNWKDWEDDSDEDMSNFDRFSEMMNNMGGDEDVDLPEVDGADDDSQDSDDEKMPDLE
UniProt Q16822, whole entry: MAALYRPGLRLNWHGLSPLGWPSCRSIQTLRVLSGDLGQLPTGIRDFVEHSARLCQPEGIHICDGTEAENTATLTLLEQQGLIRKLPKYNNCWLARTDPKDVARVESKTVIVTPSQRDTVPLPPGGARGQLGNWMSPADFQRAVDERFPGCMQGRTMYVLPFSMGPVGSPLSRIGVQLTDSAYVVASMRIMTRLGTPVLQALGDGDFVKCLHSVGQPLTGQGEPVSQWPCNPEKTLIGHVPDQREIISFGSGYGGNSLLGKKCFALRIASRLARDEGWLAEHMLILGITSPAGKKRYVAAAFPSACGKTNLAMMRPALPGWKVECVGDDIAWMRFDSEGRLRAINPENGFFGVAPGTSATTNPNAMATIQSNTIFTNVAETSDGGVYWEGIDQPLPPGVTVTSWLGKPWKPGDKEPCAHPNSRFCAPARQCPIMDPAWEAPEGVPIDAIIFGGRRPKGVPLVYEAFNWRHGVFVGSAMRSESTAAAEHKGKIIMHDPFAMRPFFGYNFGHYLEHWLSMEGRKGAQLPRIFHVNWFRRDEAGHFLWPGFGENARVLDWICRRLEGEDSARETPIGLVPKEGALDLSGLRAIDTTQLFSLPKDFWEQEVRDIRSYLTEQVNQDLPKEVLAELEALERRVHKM
UniProt Q96JJ3: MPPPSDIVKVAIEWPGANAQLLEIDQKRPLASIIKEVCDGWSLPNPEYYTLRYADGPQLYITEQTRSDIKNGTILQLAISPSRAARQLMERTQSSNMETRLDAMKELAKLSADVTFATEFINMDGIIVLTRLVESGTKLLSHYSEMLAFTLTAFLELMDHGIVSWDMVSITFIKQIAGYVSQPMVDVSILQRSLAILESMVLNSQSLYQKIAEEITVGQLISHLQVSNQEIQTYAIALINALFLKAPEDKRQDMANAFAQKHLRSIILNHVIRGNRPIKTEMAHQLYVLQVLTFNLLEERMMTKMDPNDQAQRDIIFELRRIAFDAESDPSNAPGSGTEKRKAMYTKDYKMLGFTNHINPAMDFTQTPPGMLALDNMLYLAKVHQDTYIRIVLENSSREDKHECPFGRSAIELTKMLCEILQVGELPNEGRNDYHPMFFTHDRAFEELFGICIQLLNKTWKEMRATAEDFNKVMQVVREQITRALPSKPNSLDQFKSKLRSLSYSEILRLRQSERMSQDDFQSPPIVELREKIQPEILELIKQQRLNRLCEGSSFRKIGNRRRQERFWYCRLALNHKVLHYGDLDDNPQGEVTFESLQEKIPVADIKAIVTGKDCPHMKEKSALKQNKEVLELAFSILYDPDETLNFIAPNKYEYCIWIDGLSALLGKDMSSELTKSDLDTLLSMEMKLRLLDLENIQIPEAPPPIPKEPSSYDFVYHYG
UniProt Q5K651: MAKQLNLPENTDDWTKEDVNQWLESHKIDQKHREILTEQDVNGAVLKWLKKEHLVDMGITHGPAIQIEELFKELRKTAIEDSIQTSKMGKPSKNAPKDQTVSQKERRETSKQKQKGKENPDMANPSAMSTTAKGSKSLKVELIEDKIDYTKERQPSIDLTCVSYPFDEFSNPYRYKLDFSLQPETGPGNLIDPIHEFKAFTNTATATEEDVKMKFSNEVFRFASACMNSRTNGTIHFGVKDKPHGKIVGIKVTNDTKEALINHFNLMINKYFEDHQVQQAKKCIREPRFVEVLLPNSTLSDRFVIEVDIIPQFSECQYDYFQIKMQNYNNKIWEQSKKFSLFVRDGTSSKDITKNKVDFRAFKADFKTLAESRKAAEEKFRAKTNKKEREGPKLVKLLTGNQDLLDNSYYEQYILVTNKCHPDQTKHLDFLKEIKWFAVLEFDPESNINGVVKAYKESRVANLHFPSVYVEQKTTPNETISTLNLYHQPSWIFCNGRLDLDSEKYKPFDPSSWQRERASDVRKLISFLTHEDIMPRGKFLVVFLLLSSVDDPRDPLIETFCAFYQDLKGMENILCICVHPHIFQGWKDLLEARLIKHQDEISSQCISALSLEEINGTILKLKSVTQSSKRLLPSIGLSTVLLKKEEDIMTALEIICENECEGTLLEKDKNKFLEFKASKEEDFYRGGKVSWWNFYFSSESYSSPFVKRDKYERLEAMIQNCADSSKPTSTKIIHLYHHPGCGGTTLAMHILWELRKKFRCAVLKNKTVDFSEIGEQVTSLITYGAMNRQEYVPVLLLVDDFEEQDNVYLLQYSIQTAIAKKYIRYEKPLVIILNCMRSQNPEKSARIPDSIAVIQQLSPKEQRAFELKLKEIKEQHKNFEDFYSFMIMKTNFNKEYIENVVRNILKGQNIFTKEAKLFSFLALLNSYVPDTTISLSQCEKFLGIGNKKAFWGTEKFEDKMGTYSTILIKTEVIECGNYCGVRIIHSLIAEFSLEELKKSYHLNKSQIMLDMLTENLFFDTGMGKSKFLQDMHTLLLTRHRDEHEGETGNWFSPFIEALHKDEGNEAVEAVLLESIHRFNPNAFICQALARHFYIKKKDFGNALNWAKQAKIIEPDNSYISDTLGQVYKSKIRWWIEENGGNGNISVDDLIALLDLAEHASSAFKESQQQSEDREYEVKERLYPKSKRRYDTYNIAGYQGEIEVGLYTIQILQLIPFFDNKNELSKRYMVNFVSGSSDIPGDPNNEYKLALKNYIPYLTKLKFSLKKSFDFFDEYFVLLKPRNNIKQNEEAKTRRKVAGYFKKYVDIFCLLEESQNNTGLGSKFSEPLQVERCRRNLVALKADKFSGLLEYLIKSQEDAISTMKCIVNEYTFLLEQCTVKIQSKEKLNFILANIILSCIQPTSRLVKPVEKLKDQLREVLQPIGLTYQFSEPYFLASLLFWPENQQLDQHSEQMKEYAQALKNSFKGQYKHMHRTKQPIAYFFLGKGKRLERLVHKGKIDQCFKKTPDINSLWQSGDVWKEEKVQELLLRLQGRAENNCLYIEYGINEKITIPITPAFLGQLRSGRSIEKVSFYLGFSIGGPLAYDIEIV

| Target | NP40-soluble protein abundance (concentration: 0.1mM) | NP40-soluble protein abundance (concentration: 0.5mM) | NP40-soluble protein abundance (concentration: 1mM) | NP40-soluble protein abundance (concentration: 2mM) | NP40-soluble protein abundance (concentration: 4mM) | NP40-soluble protein abundance (concentration: 6mM) | NP40-soluble protein abundance (concentration: 8mM) | NP40-soluble protein abundance (concentration: 10mM) |
| --- | --- | --- | --- | --- | --- | --- | --- | --- |
| NCAPD2 (UniProt Q15021) | 1.03 ± 0.027 | 1.05 ± 0.057 | 0.995 ± 0.037 | 1.01 ± 0.074 | 1.01 ± 0.061 | 1.01 ± 0.074 | 0.99 ± 0.049 | 0.976 ± 0.044 |
| UniProt Q15185 and related entries | 0.882 ± 0.12 | 0.895 ± 0.13 | 0.852 ± 0.13 | 0.813 ± 0.12 | 0.818 ± 0.12 | 0.81 ± 0.1 | 0.819 ± 0.12 | 0.819 ± 0.11 |
| PCK2 (UniProt Q16822) | 1.01 ± 0.059 | 0.971 ± 0.05 | 0.94 ± 0.084 | 0.929 ± 0.028 | 0.906 ± 0.032 | 0.897 ± 0.032 | 0.869 ± 0.094 | 0.867 ± 0.067 |
| Q5JVZ5 and related entries (UniProt Q96JJ3) | 1.01 ± 0.012 | 1.043 ± 0.0096 | 1.027 ± 0.0054 | 1.03 ± 0.015 | 0.981 ± 0.037 | 0.998 ± 0.01 | 0.982 ± 0.034 | 0.946 ± 0.04 |
| UniProt Q5K651 and related entries | 1.04 ± 0.017 | 1.07 ± 0.021 | 0.998 ± 0.025 | 1.01 ± 0.062 | 0.968 ± 0.083 | 0.959 ± 0.047 | 0.985 ± 0.045 | 0.949 ± 0.088 |

Source: the supplement of paper PMC6411743
